Experimental findings from patent US20190062752 are described below.

The chains behind the UniProt entries cited, without tags or fusion partners.
UniProt Q00899, whole entry: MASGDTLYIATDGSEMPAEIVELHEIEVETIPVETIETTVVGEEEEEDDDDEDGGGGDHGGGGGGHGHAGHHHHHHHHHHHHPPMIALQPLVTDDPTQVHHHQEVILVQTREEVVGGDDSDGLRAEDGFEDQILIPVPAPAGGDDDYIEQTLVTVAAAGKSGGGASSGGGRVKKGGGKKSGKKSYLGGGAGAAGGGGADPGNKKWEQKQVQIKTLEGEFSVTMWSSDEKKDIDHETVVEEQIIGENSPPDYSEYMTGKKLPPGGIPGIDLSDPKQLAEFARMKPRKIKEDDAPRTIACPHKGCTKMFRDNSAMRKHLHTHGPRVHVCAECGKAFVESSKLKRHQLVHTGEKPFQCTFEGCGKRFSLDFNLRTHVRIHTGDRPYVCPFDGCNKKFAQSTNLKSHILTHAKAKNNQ

What all share (experiment): EMSA
(A gel shift assay detects complexes by their altered migration in electrophoresis.)

The target of data set [1] is YY1 (endogenous, ESC nuclear extract) (Mus musculus) (UniProt Q00899). The note with it: nuclear extract; YY1 antibody supershift; protein in an extract; label: 32P.
In another data set the target is T1, CTCF (Mus musculus) (UniProt Q61164).
T1 sequence (looked up, limits assumed): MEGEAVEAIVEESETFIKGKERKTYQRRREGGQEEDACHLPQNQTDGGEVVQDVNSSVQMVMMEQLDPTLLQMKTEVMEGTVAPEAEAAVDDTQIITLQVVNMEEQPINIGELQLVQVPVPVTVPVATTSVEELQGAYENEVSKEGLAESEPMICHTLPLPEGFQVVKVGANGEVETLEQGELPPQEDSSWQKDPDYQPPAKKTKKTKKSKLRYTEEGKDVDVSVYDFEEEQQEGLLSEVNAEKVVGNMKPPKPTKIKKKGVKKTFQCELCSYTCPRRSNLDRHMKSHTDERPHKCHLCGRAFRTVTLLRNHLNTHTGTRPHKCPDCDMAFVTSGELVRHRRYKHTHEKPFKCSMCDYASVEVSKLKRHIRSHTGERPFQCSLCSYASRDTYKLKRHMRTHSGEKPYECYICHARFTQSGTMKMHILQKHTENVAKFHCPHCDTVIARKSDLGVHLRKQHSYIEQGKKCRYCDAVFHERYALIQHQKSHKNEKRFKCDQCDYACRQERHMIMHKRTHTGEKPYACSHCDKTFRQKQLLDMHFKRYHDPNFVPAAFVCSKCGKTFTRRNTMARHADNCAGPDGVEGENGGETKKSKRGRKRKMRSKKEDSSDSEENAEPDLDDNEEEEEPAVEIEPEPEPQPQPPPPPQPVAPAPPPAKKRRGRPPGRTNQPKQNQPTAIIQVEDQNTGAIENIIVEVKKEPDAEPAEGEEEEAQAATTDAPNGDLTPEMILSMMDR
The note with it: ESC nuclear extract, antibody supershift; protein in an extract; label: 32P.

For data set [2], the target named is T2, Ronin (Thap11) (Mus musculus) (UniProt Q9JJD0).
T2 sequence (looked up, limits assumed): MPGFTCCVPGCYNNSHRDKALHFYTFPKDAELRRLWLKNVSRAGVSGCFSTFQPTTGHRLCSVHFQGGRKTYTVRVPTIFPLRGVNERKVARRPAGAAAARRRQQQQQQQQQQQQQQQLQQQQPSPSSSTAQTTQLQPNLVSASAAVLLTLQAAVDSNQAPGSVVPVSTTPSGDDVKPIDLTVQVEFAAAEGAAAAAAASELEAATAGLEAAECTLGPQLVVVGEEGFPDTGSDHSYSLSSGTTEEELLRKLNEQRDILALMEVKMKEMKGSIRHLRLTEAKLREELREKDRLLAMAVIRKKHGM
Particulars: ESC nuclear extract, antibody supershift; protein in an extract; label: 32P.

Results from cells or extracts need not show a direct contact. For some of these results: Tags and fusion partners may be left off the protein sequences shown.

With “CTCTTCTCTCTTAAAATGGCTGCCTGTCTG (double strand) [Arid1a promoter DNA with YY1 motif]”, the binding result in data set [1] was “binds”. As to “CUCUUCUCUCUUAAAAUGGCUGCCUGUCUG [Arid1a promoter RNA A]”, the binding result (in the data set with CTCF (Mus musculus); in data set [2]) was “binds” throughout.

In the case of “TCGCTCCCCGGCCATCTTGGCGGCTGGTGT (double strand) [Rpl30 promoter DNA with YY1 motif]”, the binding result in data set [1] is on record as “binds”.
